Results are given in words; binding and its absence hold for the method and conditions named. A result given as binding can be weak or reduced; the word gives no strength.
Tests used:
[1] = target: human RAGE (receptor for advanced glycation end-products) (human) (UniProt Q15109); experiment: SPR; Biacore 3000, inhibition format: S100A9 (50 nM), S100A4 (100 nM) or ~1.3 µg/mL S100A4, S100A9 and their 1:1 mixture, pre-incubated with oxyclozanide (OX), injected over RAGE or TLR4/MD2 immobilised on a CM5 chip (~3 kRU); HBS-P with 1 mM Ca++, 20 µM Zn++, 1% DMSO; both purified
human TLR4/MD2 (human) [2] = experiment: as above
[3] = target: human RAGE (receptor for advanced glycation end-products) (human) (UniProt Q15109); experiment: SPR; inhibition with 0.98-500 ng/mL heparan sulfate (HS): ~1.3 µg/mL S100A4, S100A9 or the 1:1 mixture injected over immobilised RAGE; 1 mM Ca++, 20 µM Zn++, no DMSO; both purified
[4] = target: human RAGE (receptor for advanced glycation end-products) (human) (UniProt Q15109); experiment: SPR; S100A4, S100A9 and a 1:1 mixture of S100A4/9 injected (2 min at 30 µL/min) over immobilised RAGE or TLR4; no competitor; both purified
human TLR4/MD2 (human) [5] = experiment: as above

The chains behind the UniProt entries cited, without tags or fusion partners. Where a name states a change or a piece, a line headed by the entry shows the natural chain unless it says otherwise.
UniProt Q15109: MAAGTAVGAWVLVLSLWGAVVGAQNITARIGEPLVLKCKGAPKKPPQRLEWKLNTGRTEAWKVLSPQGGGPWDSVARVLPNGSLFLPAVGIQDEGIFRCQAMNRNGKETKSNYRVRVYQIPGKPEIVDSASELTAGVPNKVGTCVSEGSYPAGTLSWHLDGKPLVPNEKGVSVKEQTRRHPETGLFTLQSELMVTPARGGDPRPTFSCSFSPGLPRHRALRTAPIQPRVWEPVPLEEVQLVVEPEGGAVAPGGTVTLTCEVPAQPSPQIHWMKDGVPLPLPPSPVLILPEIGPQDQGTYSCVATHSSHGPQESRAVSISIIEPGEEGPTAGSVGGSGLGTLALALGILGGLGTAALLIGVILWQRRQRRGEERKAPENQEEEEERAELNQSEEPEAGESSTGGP

Measured: binding

B1: recombinant human S100A9 (protein, UniProt P06702 1-114)
chain: MTCKMSQLERNIETIINTFHQYSVKLGHPDTLNQGEFKELVRKDLQNFLKKENKNEKVIEHIMEDLDTNADKQLSFEEFIMLMARLTWASHEKMHEGDEGPGHHHKPGLGEGTP
binds: [1] | human TLR4/MD2 (human) [2] | [3] | [4] | human TLR4/MD2 (human) [5]
